The results in this text go back to publication PMC9916828.

Chains of the proteins cited; added tags and fusions are not shown. Residues count along the entry.
UniProt P43274: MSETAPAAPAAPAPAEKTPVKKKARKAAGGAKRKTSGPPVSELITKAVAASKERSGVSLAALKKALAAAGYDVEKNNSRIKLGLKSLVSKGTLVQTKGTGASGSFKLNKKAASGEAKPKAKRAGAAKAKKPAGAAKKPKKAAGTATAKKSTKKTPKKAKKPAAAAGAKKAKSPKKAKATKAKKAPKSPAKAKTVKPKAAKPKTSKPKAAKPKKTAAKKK
UniProt P11627, residues 20-1260: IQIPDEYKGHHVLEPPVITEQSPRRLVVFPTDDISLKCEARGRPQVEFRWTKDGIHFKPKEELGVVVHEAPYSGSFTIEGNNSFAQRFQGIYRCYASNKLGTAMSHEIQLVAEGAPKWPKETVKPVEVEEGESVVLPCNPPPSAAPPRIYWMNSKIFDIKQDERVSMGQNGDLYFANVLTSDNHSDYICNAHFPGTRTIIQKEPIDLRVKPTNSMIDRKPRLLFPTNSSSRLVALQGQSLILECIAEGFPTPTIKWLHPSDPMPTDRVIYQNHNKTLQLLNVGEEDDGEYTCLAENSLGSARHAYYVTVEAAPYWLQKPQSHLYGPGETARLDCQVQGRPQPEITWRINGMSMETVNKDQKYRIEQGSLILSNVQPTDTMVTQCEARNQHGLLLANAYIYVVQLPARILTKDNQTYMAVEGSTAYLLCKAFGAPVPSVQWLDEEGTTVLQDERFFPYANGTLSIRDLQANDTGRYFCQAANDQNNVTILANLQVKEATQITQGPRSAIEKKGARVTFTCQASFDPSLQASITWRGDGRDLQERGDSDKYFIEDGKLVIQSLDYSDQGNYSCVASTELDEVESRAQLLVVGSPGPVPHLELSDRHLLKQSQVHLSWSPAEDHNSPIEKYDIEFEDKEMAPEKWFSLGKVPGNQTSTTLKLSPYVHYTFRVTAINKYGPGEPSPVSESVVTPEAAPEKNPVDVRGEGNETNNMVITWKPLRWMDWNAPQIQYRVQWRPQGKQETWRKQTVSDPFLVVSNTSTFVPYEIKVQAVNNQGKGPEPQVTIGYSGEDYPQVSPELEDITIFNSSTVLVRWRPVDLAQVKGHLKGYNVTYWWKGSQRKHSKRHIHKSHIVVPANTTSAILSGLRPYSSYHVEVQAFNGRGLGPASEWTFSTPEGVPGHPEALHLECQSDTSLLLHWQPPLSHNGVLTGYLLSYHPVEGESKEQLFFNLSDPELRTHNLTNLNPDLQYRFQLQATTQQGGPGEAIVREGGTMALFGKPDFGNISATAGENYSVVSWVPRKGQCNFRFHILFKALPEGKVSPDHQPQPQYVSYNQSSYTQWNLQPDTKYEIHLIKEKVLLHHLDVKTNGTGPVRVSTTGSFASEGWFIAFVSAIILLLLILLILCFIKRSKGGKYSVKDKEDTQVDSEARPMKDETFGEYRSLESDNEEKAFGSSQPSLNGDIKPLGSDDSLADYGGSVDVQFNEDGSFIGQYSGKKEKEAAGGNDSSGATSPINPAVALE

Results are given in words; binding and its absence hold for the method and conditions named. In cells and extracts the contact can be indirect. Some binding calls cover weakened binding; strength is not graded here.

For experiment [1], the target named is T1, nucleoporin 93 kDa (Nup93), endogenous mouse (mouse (endogenous in cultured cortical neurons)) (UniProt Q8BJ71).
T1 sequence: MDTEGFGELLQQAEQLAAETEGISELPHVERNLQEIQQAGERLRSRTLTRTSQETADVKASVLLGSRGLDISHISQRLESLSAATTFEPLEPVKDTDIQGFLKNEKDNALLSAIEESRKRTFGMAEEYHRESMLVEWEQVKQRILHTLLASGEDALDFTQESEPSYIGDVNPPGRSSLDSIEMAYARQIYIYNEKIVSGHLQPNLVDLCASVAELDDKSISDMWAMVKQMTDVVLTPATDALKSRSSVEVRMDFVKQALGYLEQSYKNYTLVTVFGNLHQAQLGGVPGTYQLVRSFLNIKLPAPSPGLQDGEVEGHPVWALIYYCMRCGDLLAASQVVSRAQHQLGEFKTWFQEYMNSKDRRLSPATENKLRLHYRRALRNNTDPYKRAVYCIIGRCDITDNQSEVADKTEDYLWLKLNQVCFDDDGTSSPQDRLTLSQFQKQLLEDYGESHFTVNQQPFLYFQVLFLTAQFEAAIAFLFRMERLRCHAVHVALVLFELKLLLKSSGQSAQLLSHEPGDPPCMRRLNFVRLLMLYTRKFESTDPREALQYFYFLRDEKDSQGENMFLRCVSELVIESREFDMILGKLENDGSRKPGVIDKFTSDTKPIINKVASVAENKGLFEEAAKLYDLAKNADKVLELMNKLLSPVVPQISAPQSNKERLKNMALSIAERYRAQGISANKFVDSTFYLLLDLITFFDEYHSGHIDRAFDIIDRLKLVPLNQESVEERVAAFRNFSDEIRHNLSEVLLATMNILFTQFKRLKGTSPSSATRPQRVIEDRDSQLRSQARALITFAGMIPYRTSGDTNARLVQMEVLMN
Briefly: proximity ligation; fixed, permeabilised cultured mouse cortical (and cerebellar) neurons from wild-type or L1 mutant mice; mouse L1 antibody C-2 with goat or rabbit antibodies against the partner, or rabbit L1 antibody ab12399 with mouse antibodies; cells treated with vehicle, 1 µM aprotinin, 50 µg/mL L1 antibody 557 or siRNAs.

Experiment [2] deals with histone H1.4 (HistH1e), endogenous mouse (mouse (endogenous in cultured cortical neurons)) (UniProt P43274). Described as above.

Regarding “cell adhesion molecule L1, endogenous in wild-type mouse neurons (from UniProt P11627 20-1260)”, the binding result in experiment [1] and in experiment [2] was “binds” each time.
